{"source": "patent US20260152494A1", "about": "“CDK2 INHIBITORS AND METHODS OF USING THE SAME” (Cedilla Therapeutics, Inc., priority 2022, published 2026)", "key": {"CDK2/Cyclin E1": {"biological_target": "CDK2/Cyclin E1 (Homo sapiens, UniProt P24941)", "test": "CDK2/Cyclin E1 Caliper LabChip EZ Reader mobility shift assay", "details": "read-out: Caliper Assay (CDK2/CCNE1): IC50; 2.5 nM CDK2/Cyclin E1, 100 μM ATP, 1.5 μM fluorescent peptide, 30 min preincubation", "protocol": "Example A1: CDK2/Cyclin E1 Caliper Assay\nInhibition of CDK2/Cyclin E1 activity in the presence of compounds of the present disclosure was evaluated using a Caliper LabChip® EZ Reader mobility shift assay. In the assay, CDK2/Cyclin E1 (Eurofins, 14-475) catalyzed the phosphorylation of a fluorescently tagged peptide 5-FAM-QSPKKG-CONH2 (PerkinElmer, FL Peptide 18) which induced a difference in capillary electrophoresis mobility. The peptide substrate and product were measured, and the conversion ratio was used to determine the inhibition (as % activity and IC50 values) of CDK2/Cyclin E1. Reactions contained 50 mM HEPES pH 7.5, 10 mM MgCl2, 1 mM EDTA, 2 mM DTT, 0.01% Brij35, 0.5 mg/mL BSA, 0.1% DMSO, 2.5 nM CDK2/Cyclin E1, 100 μM ATP, and 1.5 μM fluorescent peptide substrate.\nDose titrations of inhibitors in 100% DMSO were combined with 3.25 nM CDK2/Cyclin E1 and 130 μM of ATP in reaction buffer. The mixtures were incubated for 30 minutes before the addition of fluorescent peptide substrate to initiate the kinase reaction. The final conditions were 2.5 nM CDK2/Cyclin E1, 100 μM ATP, and 1.5 μM fluorescent peptide. The reactions were stopped after 100 minutes with the addition of EDTA (400 mM final EDTA concentration). The stopped reactions were analyzed on a Caliper LabChip® EZ Reader II. […]"}, "[1]": {"system": "Kuramochi cells labeled with mApple-H2B", "test": "IncuCyte cell proliferation assay", "details": "read-out: IncuCyte Kuramochi RB-WT: IC50, 72 hours, cell count normalized to DMSO", "protocol": "Example A3: IncuCyte® Cell Proliferation Assay\nIncuCyte® assay was used to measure the effect of disclosed compounds on cell proliferation. Fluorescent microscopy images of cells were taken immediately after compound treatment and 72 hours later. Image analysis software was used to obtain cell counts as a function of compound concentration. Kuramochi cells labeled with mApple-H2B were seeded on 384-well assay-ready plates. Plates were placed in an IncuCyte® (Sartorius) and scanned at 0 and 72 hours. IncuCyte® software was used to count the number of fluorescent nuclei in each well. The fold change in cell count from 0 to 72 hours in wells treated with increasing compounds concentrations (10 pts, 1/2 log dilution, 20 μM top concentration) was normalized to DMSO control wells. The normalized cell counts were fit with dose response curves and a GI50 was calculated."}}, "note": "Structures were worked out from names or drawings and are uncertain.", "data": [{"smiles": "Cc1ccc(CNC(=O)C2CN(C(=O)c3cnn(Cc4ccccc4)c3)CC23CN(C(=O)[C@H]2CC2(C)C)C3)nn1", "note": "(some centres unmarked)", "values": [{"measurement": "IC50", "setting": "CDK2/Cyclin E1", "value": "1 to 10", "unit": "µM"}, {"measurement": "IC50", "setting": "[1]", "value": "> 20", "unit": "µM"}]}]}
